We go through 14 molecules from PubChem BioAssay AID282 (DTP/NCI, 2004).

The list shows only some results of the screen, not a fair sample: it gathers tests that were run many times, whatever their T/C, doses with no T/C, and many T/C values between a quarter and a half above the control. Other doses and runs of a compound stand elsewhere. T/C: endpoint of the treated group in % of that of the vehicle group. Some doses have a count of surviving animals in place of a T/C: the source files T/C as zero there, which appears to mark a toxic dose or a test without result, not a measured value. Some survivor counts are full or nearly so, which does not show that the dose was tolerated: survival well below the control is almost never listed, so the zero probably covers shortened survival too. Counts of survivors are from the toxicity check (mostly the fifth day) where no day follows; animals may have died later. Schedules are NCI's codes, read here as Q, the interval in days (D) or hours (H), X, the number of doses. Some entries hold several experiments; their values stand side by side, smallest first. Some schedule codes hold Z or #, which are not explained here. For survival time, this PubChem deposit counts one and a half times the control or more as active, and values a quarter to a half above the control carry no call in these data; other NCI protocols may use other cut-offs. Some T/C values are followed by the survivors on the day toxicity was checked, most often the fifth; without a count, all were alive then.

For this assay, the system named is BDF1 mice, L1210 terephthalanilide-resistant leukemia ip, survival T/C. As to the kind of experiment: NCI In Vivo Anticancer Drug Screen. Data for tumor model L1210 Leukemia resistant to A Terephthalanilide; NSC 38280 (intraperitoneal) in B6D2F1 (BDF1) mice. The settings on record: T/C endpoint: mean survival time, higher T/C = longer survival. How it is done: The antitumor activity of compounds was measured in mice bearing transplantable tumors. Survival or tumor size were measured and the results are expressed as the measurement made in the treated group (T) divided by the measurement made in the vehicle treated control group (C). The tumor model used in this assay is L1210 Leukemia resistant to A Terephthalanilide; NSC 38280 (intraperitoneal) in B6D2F1 (BDF1) mice

[1] abbreviates: dose: 5.0 mg/kg/injection, schedule: Q01DX Z (ip), vehicle: carboxymethylcellulose (CMC).
The mark [2] stands for this setting: dose: 10.0 mg/kg/injection, schedule: Q01DX010 (ip), vehicle: saline.
[3] abbreviates: dose: 50.0 mg/kg/injection, schedule: Q01DX Z (ip), vehicle: carboxymethylcellulose (CMC).
Where [4] appears, read: dose: 0.5 mg/kg/injection, schedule: Q01DX010 (ip), vehicle: saline.
Where [5] appears, read: dose: 4.0 mg/kg/injection, schedule: Q01DX Z (ip), vehicle: carboxymethylcellulose (CMC).
Setting [6] is: dose: 7.5 mg/kg/injection, schedule: Q01DX Z (ip), vehicle: carboxymethylcellulose (CMC).

For `CSc1ncnc2nc[nH]c12`, for the setting “dose: 250.0 mg/kg/injection, schedule: Q01DX Z (ip), vehicle: carboxymethylcellulose (CMC)”, the survivor count is recorded as 1 of 6.
As for `NC(=O)N(CCCl)N=O`, the survivor count is listed as 6 of 6 (dose: 2.0 mg/kg/injection, schedule: Q01DX010 (ip), vehicle: saline); 6 of 6 (dose: 4.0 mg/kg/injection, schedule: Q01DX010 (ip), vehicle: saline); 6 of 6 (dose: 8.0 mg/kg/injection, schedule: Q01DX Z (ip), vehicle: saline); 6 of 6 (dose: 16.0 mg/kg/injection, schedule: Q01DX Z (ip), vehicle: saline); 0 of 6 (dose: 32.0 mg/kg/injection, schedule: Q01DX Z (ip), vehicle: saline); 0 of 6 (dose: 64.0 mg/kg/injection, schedule: Q01DX Z (ip), vehicle: saline). Where the note is “dose: 4.0 mg/kg/injection, schedule: Q01DX Z (ip), vehicle: saline”, the T/C was 145 % of control.
Turning to `O=c1[nH]cc(F)c(=O)[nH]1`, the T/C by setting is: (dose: 2.5 mg/kg/injection, schedule: Q01DX Z (ip), vehicle: carboxymethylcellulose (CMC)) 125 and 139 % of control; (dose: 3.0 mg/kg/injection, schedule: Q01DX Z (ip), vehicle: carboxymethylcellulose (CMC)) 129 % of control; (dose: 5.0 mg/kg/injection, schedule: Q01DX010 (ip), vehicle: saline) 127 % of control; under setting [1], 138 and 145 % of control; under setting [2], 145 % of control; under setting [3], 130 % of control. Further, where the note is “dose: 150.0 mg/kg/injection, schedule: Q01DX Z (ip), vehicle: carboxymethylcellulose (CMC)”, the survivor count was 6 of 6.
On to `CC[C@]1(O)C[C@H]2CN(CCc3c([nH]c4ccccc34)[C@@](C(=O)OC)(c3cc4c(cc3OC)N(C=O)[C@H]3[C@@](O)(C(=O)OC)[C@H](OC(C)=O)[C@]5(CC)C=CCN6CC[C@]43[C@@H]65)C2)C1`, for which the T/C is 106, 120, 121, 129 % of control (dose: 0.03 mg/kg/injection, schedule: Q01DX010 (ip), vehicle: saline); 108, 118, 120, 127 % of control (dose: 0.06 mg/kg/injection, schedule: Q01DX010 (ip), vehicle: saline); 116, 118, 123, 144 % of control (dose: 0.12 mg/kg/injection, schedule: Q01DX010 (ip), vehicle: saline); 106, 109, 110, 137 % of control (dose: 0.25 mg/kg/injection, schedule: Q01DX010 (ip), vehicle: saline); 98 % of control under setting [4]. Also, the survivor count under setting [4] is 5 of 6 and 6 of 6.
With `Nc1ncnc2[nH]ncc12`, the survivor count is, setting by setting: (dose: 12.0 mg/kg/injection, schedule: Q01DX010 (ip), vehicle: saline) 6 of 6; (dose: 37.5 mg/kg/injection, schedule: Q01DX Z (ip), vehicle: carboxymethylcellulose (CMC)) 5 of 6; under setting [3], 5 of 6. Moreover, under “dose: 18.0 mg/kg/injection, schedule: Q01DX Z (ip), vehicle: carboxymethylcellulose (CMC)”, the T/C is 137 % of control.
For `Cn1cnc([N+](=O)[O-])c1Sc1nc(N)nc2nc[nH]c12`, the T/C was 125 % of control (dose: 1.0 mg/kg/injection, schedule: Q01DX Z (ip), vehicle: carboxymethylcellulose (CMC)); 147 % of control under setting [5]; 141 % of control under setting [1]; 129 % of control under setting [6].
Turning to `CN(Cc1cnc2nc(N)nc(N)c2n1)c1ccc(C(=O)N[C@@H](CCC(=O)O)C(=O)O)cc1`, the T/C (dose: 0.19 mg/kg/injection, schedule: Q01DX010 (ip), vehicle: other) was 123, 125 [5 of 6 alive], 126, 132 % of control; the T/C (dose: 0.38 mg/kg/injection, schedule: Q01DX010 (ip), vehicle: other) is listed as 136, 152, 161, 166 % of control; the T/C (dose: 0.75 mg/kg/injection, schedule: Q01DX010 (ip), vehicle: other) is listed as 150, 179, 182, 184 % of control; the T/C (dose: 1.5 mg/kg/injection, schedule: Q01DX010 (ip), vehicle: other) is given as 174, 186, 205, 220 % of control; the T/C (dose: 3.0 mg/kg/injection, schedule: Q01DX010 (ip), vehicle: other) was 95, 111, 121, 135 % of control.
Consider `C[C@H](N)C(=O)N[C@@H]1[C@H]2C(=C(O)C[C@@H](O)[C@@H]2O)C(=O)O[C@@H]1C`, for which the T/C (dose: 187.0 mg/kg/injection, schedule: Q01DX Z (ip), vehicle: saline) was 135 % of control.
For `O=C(Nc1ccc(C2=NCCCN2)cc1)c1ccc(NC(=O)c2ccc(C3=NCCCN3)cc2)cc1`, the T/C reads like this: (dose: 4.0 mg/kg/injection, schedule: Q01DX010 (ip), vehicle: other) 128 % of control; (dose: 8.0 mg/kg/injection, schedule: Q01DX010 (ip), vehicle: other) 132 % of control. In addition, the survivor count runs as follows: (dose: 16.0 mg/kg/injection, schedule: Q01DX010 (ip), vehicle: other) 5 of 6; (dose: 32.0 mg/kg/injection, schedule: Q01DX010 (ip), vehicle: other) 0 of 6.
For the molecule `Oc1cc(CN(CCCl)CCCl)c(O)cc1CN(CCCl)CCCl`, the T/C was 125 and 135 % of control (dose: 1.25 mg/kg/injection, schedule: Q01DX010 (ip), vehicle: saline); 145 % of control [5 of 6 alive] (dose: 2.0 mg/kg/injection, schedule: Q01DX Z (ip), vehicle: carboxymethylcellulose (CMC)); 131 and 132 % of control (dose: 2.5 mg/kg/injection, schedule: Q01DX010 (ip), vehicle: saline); 134 % of control under setting [5]. For the same molecule, the survivor count by setting is: under setting [6], 3 of 6; (dose: 10.0 mg/kg/injection, schedule: Q01DX Z (ip), vehicle: carboxymethylcellulose (CMC)) 1 of 6; (dose: 15.0 mg/kg/injection, schedule: Q01DX Z (ip), vehicle: carboxymethylcellulose (CMC)) 3 of 6; (dose: 20.0 mg/kg/injection, schedule: Q01DX Z (ip), vehicle: carboxymethylcellulose (CMC)) 4 of 6; (dose: 25.0 mg/kg/injection, schedule: Q01DX Z (ip), vehicle: carboxymethylcellulose (CMC)) 5 of 6; under setting [3], 3 of 6. Also, the survivor count is, setting by setting: (dose: 75.0 mg/kg/injection, schedule: Q01DX Z (ip), vehicle: carboxymethylcellulose (CMC)) 1 of 6; (dose: 100.0 mg/kg/injection, schedule: Q01DX Z (ip), vehicle: carboxymethylcellulose (CMC)) 4 of 6.
With `c1ccc(CCSc2ncnc3nc[nH]c23)cc1`, for the setting “dose: 500.0 mg/kg/injection, schedule: Q01DX010 (ip), vehicle: saline”, the survivor count is 6 of 6.
With `CCCNc1ncnc2[nH]ncc12`, where the note is “dose: 25.0 mg/kg/injection, schedule: Q01DX Z (ip), vehicle: saline”, the T/C is 128 % of control. The survivor count (dose: 100.0 mg/kg/injection, schedule: Q01DX Z (ip), vehicle: saline) was 3 of 6.
For `CS(=O)(=O)OCCC(=O)N1CCN(C(=O)CCOS(C)(=O)=O)CC1`, the T/C is, setting by setting: (dose: 25.0 mg/kg/injection, schedule: Q01DX010 (ip), vehicle: saline) 131 % of control; (dose: 50.0 mg/kg/injection, schedule: Q01DX010 (ip), vehicle: saline) 138 % of control. Moreover, under “dose: 100.0 mg/kg/injection, schedule: Q01DX010 (ip), vehicle: saline”, the survivor count is 5 of 6.
As for `C[n+]1ccc(NC(=O)c2ccc(NC(=O)c3cccc(C(=O)Nc4ccc(C(=O)Nc5cc[n+](C)cc5)cc4)c3)cc2)cc1`, the survivor count under setting [2] is 7 of 7; the survivor count (dose: 20.0 mg/kg/injection, schedule: Q01DX010 (ip), vehicle: saline) is recorded as 7 of 7; the survivor count (dose: 40.0 mg/kg/injection, schedule: Q01DX010 (ip), vehicle: saline) was 5 of 6 and 7 of 7; the survivor count (dose: 80.0 mg/kg/injection, schedule: Q01DX010 (ip), vehicle: saline) is listed as 0 of 6; the survivor count (dose: 160.0 mg/kg/injection, schedule: Q01DX010 (ip), vehicle: saline) is 0 of 6.
